Percent effect of library compounds

By UniProt entry, the sequences of proteins in these tests, tags left out. Residues count along the entry.
UniProt A4I591, 1-473: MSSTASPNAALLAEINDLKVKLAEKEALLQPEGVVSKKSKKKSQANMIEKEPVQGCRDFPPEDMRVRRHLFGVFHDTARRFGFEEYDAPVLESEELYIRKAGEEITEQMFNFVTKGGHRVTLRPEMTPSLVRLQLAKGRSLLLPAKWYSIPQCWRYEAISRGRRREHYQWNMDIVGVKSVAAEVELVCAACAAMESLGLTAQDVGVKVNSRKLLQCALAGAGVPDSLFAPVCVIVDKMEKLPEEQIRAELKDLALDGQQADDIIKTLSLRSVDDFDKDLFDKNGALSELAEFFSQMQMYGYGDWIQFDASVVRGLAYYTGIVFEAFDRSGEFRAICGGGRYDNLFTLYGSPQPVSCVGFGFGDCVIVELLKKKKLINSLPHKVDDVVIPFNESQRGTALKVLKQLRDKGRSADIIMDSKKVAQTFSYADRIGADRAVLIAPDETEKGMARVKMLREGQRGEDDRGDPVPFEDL

From ChEMBL document CHEMBL3988442, “University of Dundee, Small-Polar-MMV Screening Library” (2021).

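Histidine-tRNA ligase, Leishmania infantum (UniProt A4I591). Enzyme assay of histidyl-tRNA synthetase; the read-out is not stated. Concentration: 30 µM. The record gives no direction; compounds that gave an IC50 in retests scored well above the rest, so higher reads as stronger inhibition. The assay is labelled LdHisRS but filed under L. infantum. Size under these conditions: about 69,000 compounds, about 410 of them at 50% or above in at least one test.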

Values are the deposited “Percent Effect”, in %. The record does not define 0% and 100%; most values in the screen are far below 50% and negative numbers occur (in some assays of this library far below -100). Compounds were drawn at random from those tested, without regard to their results.

| compound | Percent Effect |
|---|---|
| `COCc1ccc(CNC(=O)C2=NN(c3ccccc3)C(=O)CN2)cc1` | 16.98 |
| `O=C(O)C(c1cccc2c1OCC2)N1CCC(N2CCCC2)CC1` (stereo not drawn) | 8.571 |
| `Cc1cc(C(=O)N2CCC[C@]3(C[C@H](OCC4CC4)CO3)C2)no1` | 14 |
| `Cc1nc(C)n(CC2CCCN(Cc3ccc(F)cc3C#N)C2)n1` (stereo not drawn) | 12.5 |
| `c1cnc(N2CCOC3(COCCN(Cc4cc[nH]n4)C3)C2)nc1` (stereo not drawn) | 21.37 |
| `CCc1nc(C2CCCN2CC(=O)N2CCCc3ccccc32)no1` (stereo not drawn) | 30.91 |
| `Cc1noc(C)c1CNC(=O)N1CCC(OCC2CC2)CC1` | -1.613 |
| `O=C1NC[C@]2(CC[C@@H](C(=O)N3CCC(O)CC3)CC2)Oc2ccccc21` | 13.1 |
| `CCCc1ccc(CN2CCN(C(=O)N(C)C)[C@@H]3CS(=O)(=O)C[C@@H]32)o1` | 16.53 |
| `O=C(NC(CN1CCCC1)c1ccccc1)c1c(O)cc(F)cc1F` (stereo not drawn) | 21.13 |
| `COc1ccc(CN2CCOCC3(CCN(C4CCOCC4)C3)C2)cc1` (stereo not drawn) | 5.455 |
| `COc1cccc(C(=O)NCC(O)c2cccs2)c1` (stereo not drawn) | 28.85 |
| `Cc1ccc(S(=O)(=O)N2CSCC2C(=O)NCC(F)(F)F)cc1C` (stereo not drawn) | 9.565 |
| `Cc1n[nH]c(C)c1CCC(=O)NCC1(O)CCN(c2ccccn2)C1` (stereo not drawn) | 19.86 |
| `COc1ccc2c(O)c(NC(=O)NCC3CC3)cnc2c1` | 8.333 |
| `OCCC1CN(c2nc(-c3ccncc3)nc3c2CCNCC3)CCO1` (stereo not drawn) | 14.52 |
| `Cc1ccc(N2CC3(COCCN(Cc4ccccn4)C3)OCC2=O)s1` (stereo not drawn) | 13.27 |
| `O=C(NCC(=O)N1CCc2ccccc2C1)c1cnccn1` | 22.92 |
| `CCC(C)(CCO)NC(=O)c1ccon1` (stereo not drawn) | 3.125 |
| `COCCN(C)C(=O)c1ccccc1-n1cccn1` | -9.375 |
| `c1cncc(N2CCC(c3ccncc3)CC2)c1` | 2.817 |
| `CC(NC(=O)NCCCn1cccn1)c1ccccn1` (stereo not drawn) | 8.036 |
| `Cc1ccc(CNC2CCCc3c2cnn3Cc2ccccc2)s1` (stereo not drawn) | 18.18 |
| `O=C(NCc1ccc(Br)c(F)c1)Nc1cn[nH]c1` | 13.25 |
| `Cc1noc(C)c1CN(C)C(=O)C1CCCc2ccccc21` (stereo not drawn) | 16.07 |
| `CN(C)C(=O)CCC[S+]([O-])Cc1cc(Cl)ccc1Cl` (stereo not drawn) | 13.33 |
| `CCOc1cccc(C(C(=O)O)N(C)Cc2cc(C)no2)c1` (stereo not drawn) | 8.85 |
| `Cn1cnc(S(=O)(=O)N2CCCc3c(F)cc(F)cc32)c1Cl` | 20.54 |
| `COCc1cc(N(C)Cc2cc(C(C)(C)C)n[nH]2)ncn1` | 15.69 |
| `COc1cc(OC)cc(-c2noc(CN)n2)c1` | 23.94 |
| `CCN(Cc1ccncc1)CC1(C)Cc2c(N)nc(N)nc2O1` (stereo not drawn) | 11.59 |
| `CCn1ccnc1CN1C[C@@H](CN2CCCC2)[C@@H](CO)C1` | 9.615 |
| `CC(C(=O)N1CCc2ccccc21)N1CCc2cncnc2C1` (stereo not drawn) | 43.84 |
| `CN(C)c1ncccc1CNC(=O)N(Cc1ccccc1F)C1CC1` | 12.9 |
| `COCC(C)(C)NC(=O)CC(c1ccccc1)C(F)(F)F` (stereo not drawn) | 7.692 |
| `CC(O)CC(C)(C)CNC(=O)Nc1cnn(-c2ccccc2F)c1` (stereo not drawn) | -3.896 |
| `CSCCC1CC(=O)Nc2cc(O)c(C)cc21` (stereo not drawn) | 18.33 |
| `O=C(c1ccnnc1)N1C[C@@H]2CC[C@H](Oc3cccc(F)c3)[C@@H]2C1` | 5.556 |
| `CN1C(=O)C2(CC(=O)Nc3[nH]ncc32)c2cc(Cl)ccc21` (stereo not drawn) | 7.895 |
| `CN(C)c1nccc(NCc2cc(-c3ccco3)n[nH]2)n1` | 34.29 |
| `CCN1CCC(NC(=O)c2ccc(F)cc2I)CC1` | 18.52 |
| `CCn1c(N)nc2cc(C(=O)NCCc3sccc3C)cnc21` | 15.38 |
| `NC(=O)CN1C(=O)CO[C@H]2CN(Cc3ccc(C(F)(F)F)cc3)C[C@H]21` | 27.03 |
| `c1ccc(-n2nnnc2CNCc2ccc3c(c2)OCCO3)cc1` | 5 |
| `CNc1nc2c(s1)C(c1c(F)cccc1Cl)CC(=O)N2` (stereo not drawn) | 120 |
| `O=c1[nH]c(N2CCCCC2)nc2nccc(-c3ccc4c(c3)OCO4)c12` | 12.41 |
| `COc1cccc(-c2noc(C3CCN(CC(N)=O)C3)n2)c1` (stereo not drawn) | 14.29 |
| `Cc1c(C2SCC(=O)Nc3c2c(O)nn3C2CCCCC2)cnn1C` (stereo not drawn) | 2.632 |
| `CCCS(=O)(=O)N1CCN(C(=O)CO)CC1` | 7.042 |
| `O=C(COc1ccccc1Br)N1CCOc2ccncc21` | -27.14 |
| `O=C(CN1C(=O)CCC1=O)NCC1(O)CCc2ccccc21` (stereo not drawn) | 25.97 |
| `CCC(NC(=O)CNCC(F)(F)F)c1cc(F)ccc1F` (stereo not drawn) | 16.46 |
| `Cc1cc(CN(C)C(=O)C2CC(=O)N(Cc3cccnc3)C2)on1` (stereo not drawn) | 8.197 |
| `Cc1ccc(CNC(=O)N2CCCC(NS(C)(=O)=O)C2)cc1` (stereo not drawn) | 7.965 |
| `Cc1cc(C)n(C2CCCN(C(=O)c3csc(C4CC4)n3)C2)n1` (stereo not drawn) | 4.386 |
| `O=C(c1ccc(Oc2cccnc2)cc1)N1CCN(CCO)CC1` | 20.51 |
| `Cc1cc(C)nc(C2CCN(C3CCCCC3)C2)n1` (stereo not drawn) | 5.674 |
| `OC[C@H]1CN(C2Cc3ccccc3C2)C[C@H]1CN1CCC(O)CC1` | 26.53 |

For reference, 3 entries once more:

- COCc1ccc(CNC(=O)C2=NN(c3ccccc3)C(=O)CN2)cc1 : 16.98%
- Cc1ccc(N2CC3(COCCN(Cc4ccccn4)C3)OCC2=O)s1 (stereo not drawn) : 13.27%
- COc1cccc(-c2noc(C3CCN(CC(N)=O)C3)n2)c1 (stereo not drawn) : 14.29%